The target in experiment [1] is Aac3 (S. cerevisiae (endogenous in YPH499 mitochondria)) (UniProt P18238). The experiment is described as follows: cross-linking; XL-MS, qualitative data sets: purified mitochondria from yeast grown on glycerol or glucose medium, 5 mM BS3, 1 h, room temperature, 10 mM HEPES pH 7.5, 100 mM NaCl; trypsin, peptide SEC, LC-MS/MS, pLink 1, at least two CSMs and spectrum score of 4 or more.

By UniProt entry, the sequences of proteins in these tests, tags left out.
UniProt P18238: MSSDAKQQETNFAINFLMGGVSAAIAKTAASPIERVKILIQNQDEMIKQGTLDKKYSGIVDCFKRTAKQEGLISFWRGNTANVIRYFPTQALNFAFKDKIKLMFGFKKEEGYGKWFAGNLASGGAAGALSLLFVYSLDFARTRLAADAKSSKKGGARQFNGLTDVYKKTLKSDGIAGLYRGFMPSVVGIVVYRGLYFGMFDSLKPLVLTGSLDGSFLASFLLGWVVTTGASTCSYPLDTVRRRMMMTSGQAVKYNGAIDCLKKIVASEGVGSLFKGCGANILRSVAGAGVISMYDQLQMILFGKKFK
UniProt P04840: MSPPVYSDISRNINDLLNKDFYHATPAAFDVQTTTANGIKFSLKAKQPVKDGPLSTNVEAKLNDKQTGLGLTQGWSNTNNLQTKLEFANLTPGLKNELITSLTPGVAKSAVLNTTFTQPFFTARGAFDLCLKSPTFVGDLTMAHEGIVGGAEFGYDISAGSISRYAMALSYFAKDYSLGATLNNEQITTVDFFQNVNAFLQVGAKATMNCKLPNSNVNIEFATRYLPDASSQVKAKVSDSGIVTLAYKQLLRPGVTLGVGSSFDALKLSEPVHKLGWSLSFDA
UniProt P18239: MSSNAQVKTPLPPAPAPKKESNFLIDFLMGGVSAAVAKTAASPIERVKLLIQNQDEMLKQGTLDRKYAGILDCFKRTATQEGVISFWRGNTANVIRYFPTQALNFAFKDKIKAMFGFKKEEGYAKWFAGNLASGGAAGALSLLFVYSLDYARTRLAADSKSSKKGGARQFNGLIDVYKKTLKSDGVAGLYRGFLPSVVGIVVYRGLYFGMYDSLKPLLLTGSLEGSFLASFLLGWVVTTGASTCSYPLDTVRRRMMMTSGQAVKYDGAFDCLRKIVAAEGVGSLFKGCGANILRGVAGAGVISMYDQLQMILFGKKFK

The target of experiment [2] is T1, Cor1 (CIII) (S. cerevisiae (endogenous in YPH499 mitochondria)) (UniProt P07256).
T1 sequence: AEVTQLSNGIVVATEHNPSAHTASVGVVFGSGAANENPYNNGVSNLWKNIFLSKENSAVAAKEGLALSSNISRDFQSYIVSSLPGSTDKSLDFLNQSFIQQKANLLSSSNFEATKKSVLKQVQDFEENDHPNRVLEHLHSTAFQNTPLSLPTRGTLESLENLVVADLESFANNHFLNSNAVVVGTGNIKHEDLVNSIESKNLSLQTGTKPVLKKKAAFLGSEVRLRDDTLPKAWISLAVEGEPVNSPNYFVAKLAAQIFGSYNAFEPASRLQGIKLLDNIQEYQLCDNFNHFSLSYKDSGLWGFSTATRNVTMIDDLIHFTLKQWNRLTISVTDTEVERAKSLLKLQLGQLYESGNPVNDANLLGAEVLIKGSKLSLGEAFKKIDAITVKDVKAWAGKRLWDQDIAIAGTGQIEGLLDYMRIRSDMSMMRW
The description is as above.

Experiment [3] addresses T2, Cox9 (CIV) (S. cerevisiae (endogenous in YPH499 mitochondria)) (UniProt P07255).
T2 sequence: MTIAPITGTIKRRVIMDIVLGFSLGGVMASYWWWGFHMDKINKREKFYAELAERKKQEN
Described as above.

Experiment [4] concerns the target T3, Min8 (S. cerevisiae (endogenous in YPH499 mitochondria)) (UniProt A5Z2X5).
T3 sequence: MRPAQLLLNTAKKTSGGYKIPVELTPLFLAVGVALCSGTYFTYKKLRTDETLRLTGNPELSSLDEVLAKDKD
Described as above.

Experiment [5] has as its target T4, Ndi1, the internal NADH:ubiquinone oxidoreductase (S. cerevisiae (endogenous in YPH499 mitochondria)) (UniProt P32340).
T4 sequence: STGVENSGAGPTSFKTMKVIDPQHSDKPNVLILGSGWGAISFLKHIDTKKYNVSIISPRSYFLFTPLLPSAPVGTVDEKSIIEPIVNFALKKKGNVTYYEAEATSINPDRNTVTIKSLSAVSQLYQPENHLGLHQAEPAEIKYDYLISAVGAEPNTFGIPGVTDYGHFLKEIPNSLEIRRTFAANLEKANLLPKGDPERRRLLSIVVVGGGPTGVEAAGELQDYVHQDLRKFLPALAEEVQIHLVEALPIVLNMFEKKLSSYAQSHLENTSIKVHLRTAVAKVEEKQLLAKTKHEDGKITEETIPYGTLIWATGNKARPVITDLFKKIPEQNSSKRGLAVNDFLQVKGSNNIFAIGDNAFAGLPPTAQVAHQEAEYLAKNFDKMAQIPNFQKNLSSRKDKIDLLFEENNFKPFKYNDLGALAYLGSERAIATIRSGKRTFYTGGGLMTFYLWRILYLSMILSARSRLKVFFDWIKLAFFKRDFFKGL
The description is as above.

Experiment [6] deals with T5, Sdh2 (CII) (S. cerevisiae (endogenous in YPH499 mitochondria)) (UniProt P21801).
T5 sequence: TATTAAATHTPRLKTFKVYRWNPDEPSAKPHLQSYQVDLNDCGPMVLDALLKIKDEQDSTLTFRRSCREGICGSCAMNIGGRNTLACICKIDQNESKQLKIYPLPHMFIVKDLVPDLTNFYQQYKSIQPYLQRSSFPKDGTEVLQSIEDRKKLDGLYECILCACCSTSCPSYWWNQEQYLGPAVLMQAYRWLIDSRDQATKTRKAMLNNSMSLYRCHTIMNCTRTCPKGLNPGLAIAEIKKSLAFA
The experiment is described as above.

Experiment [7] concerns the target T6, Nde1, the external NADH:ubiquinone oxidoreductase (S. cerevisiae (endogenous in YPH499 mitochondria)) (UniProt P40215).
T6 sequence: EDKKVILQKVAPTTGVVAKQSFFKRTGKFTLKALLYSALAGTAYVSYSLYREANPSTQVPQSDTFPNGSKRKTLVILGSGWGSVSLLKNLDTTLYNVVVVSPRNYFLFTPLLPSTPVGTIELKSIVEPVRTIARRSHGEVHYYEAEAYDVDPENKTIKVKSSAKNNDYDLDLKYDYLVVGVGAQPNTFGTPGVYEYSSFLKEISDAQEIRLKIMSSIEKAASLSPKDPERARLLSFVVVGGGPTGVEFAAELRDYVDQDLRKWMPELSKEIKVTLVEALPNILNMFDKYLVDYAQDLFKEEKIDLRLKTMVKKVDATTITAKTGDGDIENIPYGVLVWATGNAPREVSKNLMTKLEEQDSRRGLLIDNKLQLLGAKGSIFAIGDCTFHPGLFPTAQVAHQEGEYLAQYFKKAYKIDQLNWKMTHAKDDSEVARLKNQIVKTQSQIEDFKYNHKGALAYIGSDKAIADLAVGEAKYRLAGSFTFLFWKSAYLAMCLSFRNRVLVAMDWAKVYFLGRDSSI
The experiment is described as follows: cross-linking; quantitative XL-MS: purified mitochondria from glycerol- and glucose-grown yeast cross-linked with 5 mM BS3 or BS3-d4 in a label-swap experiment, mixed 1:1, quantified by XiQ on MS1 level.

For experiment [8], the target named is T6, Nde1, the external NADH:ubiquinone oxidoreductase (S. cerevisiae (endogenous in YPH499 mitochondria)). The experiment is described as follows: cross-linking; XL-MS, qualitative data sets: purified mitochondria from yeast grown on glycerol or glucose medium, 5 mM BS3, 1 h, room temperature, 10 mM HEPES pH 7.5, 100 mM NaCl; trypsin, peptide SEC, LC-MS/MS, pLink 1, at least two CSMs and spectrum score of 4 or more.

Experiment [9] has as its target T7, Phb1 (S. cerevisiae (endogenous in YPH499 mitochondria)) (UniProt P40961).
T7 sequence: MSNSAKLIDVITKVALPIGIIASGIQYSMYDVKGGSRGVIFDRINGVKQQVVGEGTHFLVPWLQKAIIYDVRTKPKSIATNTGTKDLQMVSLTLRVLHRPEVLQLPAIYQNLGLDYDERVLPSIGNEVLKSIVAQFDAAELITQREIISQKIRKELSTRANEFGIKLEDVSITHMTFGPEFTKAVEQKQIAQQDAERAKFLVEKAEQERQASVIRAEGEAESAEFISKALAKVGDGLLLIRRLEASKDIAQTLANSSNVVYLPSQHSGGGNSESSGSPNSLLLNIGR
The description is as above.

The target of experiment [10] is Por1 (S. cerevisiae (endogenous in YPH499 mitochondria)) (UniProt P04840). The description is as above.
Experiment [11] deals with T8, Cox12, a subunit of CIV (S. cerevisiae (endogenous in YPH499 mitochondria)) (UniProt Q01519).
T8 sequence: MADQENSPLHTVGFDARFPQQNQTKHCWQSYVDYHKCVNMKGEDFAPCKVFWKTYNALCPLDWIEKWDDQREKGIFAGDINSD
The description is as above.

Experiment [12] concerns the target T9, Rcf2 (S. cerevisiae (endogenous in YPH499 mitochondria)) (UniProt P53721).
T9 sequence: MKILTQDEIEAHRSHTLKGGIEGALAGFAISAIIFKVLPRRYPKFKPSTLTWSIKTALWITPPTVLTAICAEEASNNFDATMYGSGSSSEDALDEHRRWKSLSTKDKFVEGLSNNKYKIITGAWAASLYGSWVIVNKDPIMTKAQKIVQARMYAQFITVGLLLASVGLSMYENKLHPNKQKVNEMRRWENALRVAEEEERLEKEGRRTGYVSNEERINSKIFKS
The description is as above.

Results are given in words; binding and its absence hold for the method and conditions named. In cells and extracts the contact can be indirect. Some binding calls cover weakened binding; strength is not graded here.

For “Pet9, the major ADP/ATP carrier (from UniProt P18239 1-318)”, the binding entry in experiment [1], in experiment [2], in experiment [3], in experiment [4], in experiment [5] and in [6] was “binds” each time.

B1: Om45 (protein, UniProt P16547 1-393)
chain: MSSRIIVGSAALAAAITASIMVREQKAKGQRREGNVSAYYNGQEYGSSAPPQLGKLHNIKQGIKEDALSLKDALLGVSQKAREEAPKVTKRVISPEEDAQTRKQLGQKAKDSSSQSIFNWGFSEAERRKAIAIGEFDTAKKRFEEAVDRNEKELLSTVMREKKAALDRASIEYERYGRARDFNELSDKLDQQERNSNPLKRLLKNNTGDANTEEAAARSVQGWGDTAQEFGREELEEAKRNASSEPSEAQKRLDELKKIKEKGWFGYNKGEQSEQQIAERVARGLEGWGETAAQLSKDEMDDLRWNYENSKKQLDKNVSDAMDSLSKAKEDLKQYGSHWWSGWTSKVDNDKQALKDEAQKKYDEALKKYDEAKNKFKEWNDKGDGKFWSSKKD
As for B1, the binding entry in experiment [7], in experiment [8], in [9] and in experiment [10] was “binds” in each case.

B2: Min8 (protein, UniProt A5Z2X5 1-72)
chain: MRPAQLLLNTAKKTSGGYKIPVELTPLFLAVGVALCSGTYFTYKKLRTDETLRLTGNPELSSLDEVLAKDKD
With B2, the binding entry in experiment [11] is “binds”; in [12] it was “no binding”.

Source of the values: paper PMC7338081.
